In the supplement of paper PMC10849652:
The other results are listed elsewhere or left out.

The chains behind the UniProt entries cited, without tags or fusion partners. Where a name states a change or a piece, a line headed by the entry shows the natural chain unless it says otherwise.
UniProt P02724: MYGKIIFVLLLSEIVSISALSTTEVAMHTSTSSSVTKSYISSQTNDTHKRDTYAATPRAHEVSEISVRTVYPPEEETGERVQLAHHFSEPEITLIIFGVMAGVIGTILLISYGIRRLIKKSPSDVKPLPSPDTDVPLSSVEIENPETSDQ
UniProt Q9BX10: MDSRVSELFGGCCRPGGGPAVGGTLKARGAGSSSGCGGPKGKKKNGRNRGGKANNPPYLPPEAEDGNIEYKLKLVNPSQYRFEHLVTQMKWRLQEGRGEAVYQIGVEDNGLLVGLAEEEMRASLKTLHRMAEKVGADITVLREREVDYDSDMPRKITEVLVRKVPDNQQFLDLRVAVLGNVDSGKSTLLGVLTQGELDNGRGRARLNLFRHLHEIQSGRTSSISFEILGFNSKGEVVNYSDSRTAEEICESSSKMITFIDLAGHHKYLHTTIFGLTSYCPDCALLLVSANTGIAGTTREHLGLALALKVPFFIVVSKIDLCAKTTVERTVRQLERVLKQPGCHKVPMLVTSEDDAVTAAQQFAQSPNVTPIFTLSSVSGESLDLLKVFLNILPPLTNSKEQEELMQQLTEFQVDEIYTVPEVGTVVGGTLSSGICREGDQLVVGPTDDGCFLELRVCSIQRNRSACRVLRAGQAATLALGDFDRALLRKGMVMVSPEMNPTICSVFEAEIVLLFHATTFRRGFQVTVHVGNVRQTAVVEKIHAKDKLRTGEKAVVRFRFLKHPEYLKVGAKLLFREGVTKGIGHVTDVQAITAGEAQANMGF
UniProt P16403, whole entry, looked up: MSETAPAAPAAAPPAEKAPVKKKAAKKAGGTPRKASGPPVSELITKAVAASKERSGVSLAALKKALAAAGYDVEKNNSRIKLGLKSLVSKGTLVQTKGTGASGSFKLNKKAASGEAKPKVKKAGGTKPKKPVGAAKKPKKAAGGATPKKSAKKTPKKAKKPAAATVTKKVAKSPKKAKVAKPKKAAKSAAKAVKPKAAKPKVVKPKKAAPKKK
UniProt Q13322: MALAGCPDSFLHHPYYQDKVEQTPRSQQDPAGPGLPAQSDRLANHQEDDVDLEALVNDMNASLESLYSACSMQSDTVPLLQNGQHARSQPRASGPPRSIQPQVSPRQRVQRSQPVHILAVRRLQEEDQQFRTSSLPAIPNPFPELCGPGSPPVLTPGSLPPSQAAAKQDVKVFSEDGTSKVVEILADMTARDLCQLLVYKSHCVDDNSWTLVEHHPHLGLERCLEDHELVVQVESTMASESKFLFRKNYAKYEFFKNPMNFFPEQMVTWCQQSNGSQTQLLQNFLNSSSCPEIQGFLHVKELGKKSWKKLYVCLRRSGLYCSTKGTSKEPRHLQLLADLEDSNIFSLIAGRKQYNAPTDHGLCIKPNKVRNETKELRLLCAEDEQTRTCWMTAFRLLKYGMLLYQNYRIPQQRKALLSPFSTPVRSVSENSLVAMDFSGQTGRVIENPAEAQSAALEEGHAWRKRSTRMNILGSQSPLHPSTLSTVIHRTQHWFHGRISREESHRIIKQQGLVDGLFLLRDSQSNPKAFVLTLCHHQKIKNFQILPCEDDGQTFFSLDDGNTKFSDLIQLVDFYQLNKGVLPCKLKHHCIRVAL
UniProt Q99871: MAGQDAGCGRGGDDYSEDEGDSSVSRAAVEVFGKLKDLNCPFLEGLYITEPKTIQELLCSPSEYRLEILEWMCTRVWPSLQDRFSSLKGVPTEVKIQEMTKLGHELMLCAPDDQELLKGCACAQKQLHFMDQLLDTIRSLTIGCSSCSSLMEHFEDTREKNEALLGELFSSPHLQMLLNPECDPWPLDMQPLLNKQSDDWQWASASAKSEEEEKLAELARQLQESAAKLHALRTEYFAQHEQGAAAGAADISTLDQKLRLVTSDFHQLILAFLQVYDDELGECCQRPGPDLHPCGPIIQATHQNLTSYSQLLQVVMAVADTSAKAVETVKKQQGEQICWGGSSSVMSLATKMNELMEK
UniProt P28161: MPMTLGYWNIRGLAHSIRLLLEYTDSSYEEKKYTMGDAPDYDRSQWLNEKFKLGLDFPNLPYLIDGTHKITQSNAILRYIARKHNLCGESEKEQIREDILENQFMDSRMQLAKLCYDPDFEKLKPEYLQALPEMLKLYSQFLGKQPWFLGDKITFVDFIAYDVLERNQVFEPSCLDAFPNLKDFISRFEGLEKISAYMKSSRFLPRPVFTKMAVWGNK
UniProt Q8WW33: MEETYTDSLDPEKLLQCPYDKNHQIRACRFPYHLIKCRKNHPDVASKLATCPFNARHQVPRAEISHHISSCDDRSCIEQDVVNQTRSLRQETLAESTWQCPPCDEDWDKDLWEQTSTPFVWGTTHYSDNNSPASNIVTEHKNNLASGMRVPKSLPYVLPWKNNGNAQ
UniProt Q92522: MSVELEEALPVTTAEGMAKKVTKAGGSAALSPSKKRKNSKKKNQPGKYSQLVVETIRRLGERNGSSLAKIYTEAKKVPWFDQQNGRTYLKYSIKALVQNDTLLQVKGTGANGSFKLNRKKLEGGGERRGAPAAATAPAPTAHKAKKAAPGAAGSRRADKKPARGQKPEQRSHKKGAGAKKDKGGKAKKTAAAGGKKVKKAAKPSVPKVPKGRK
UniProt Q969F1: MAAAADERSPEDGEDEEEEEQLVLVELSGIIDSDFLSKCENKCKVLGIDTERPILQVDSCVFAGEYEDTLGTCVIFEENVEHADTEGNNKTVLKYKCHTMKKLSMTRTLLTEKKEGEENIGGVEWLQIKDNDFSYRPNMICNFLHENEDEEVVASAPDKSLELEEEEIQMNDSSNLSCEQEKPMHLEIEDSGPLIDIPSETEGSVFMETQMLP
UniProt O14929: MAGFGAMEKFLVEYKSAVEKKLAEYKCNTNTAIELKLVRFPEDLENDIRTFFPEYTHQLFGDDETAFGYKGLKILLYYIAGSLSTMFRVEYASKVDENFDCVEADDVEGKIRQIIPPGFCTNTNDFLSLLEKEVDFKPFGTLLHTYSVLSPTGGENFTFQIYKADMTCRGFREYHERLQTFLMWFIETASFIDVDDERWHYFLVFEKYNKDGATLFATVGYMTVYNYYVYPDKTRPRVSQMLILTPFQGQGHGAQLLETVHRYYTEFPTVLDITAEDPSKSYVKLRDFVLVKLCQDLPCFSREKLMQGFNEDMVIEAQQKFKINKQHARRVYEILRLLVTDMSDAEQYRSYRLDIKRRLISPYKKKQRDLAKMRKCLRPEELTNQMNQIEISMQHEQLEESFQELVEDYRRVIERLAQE
UniProt P48637: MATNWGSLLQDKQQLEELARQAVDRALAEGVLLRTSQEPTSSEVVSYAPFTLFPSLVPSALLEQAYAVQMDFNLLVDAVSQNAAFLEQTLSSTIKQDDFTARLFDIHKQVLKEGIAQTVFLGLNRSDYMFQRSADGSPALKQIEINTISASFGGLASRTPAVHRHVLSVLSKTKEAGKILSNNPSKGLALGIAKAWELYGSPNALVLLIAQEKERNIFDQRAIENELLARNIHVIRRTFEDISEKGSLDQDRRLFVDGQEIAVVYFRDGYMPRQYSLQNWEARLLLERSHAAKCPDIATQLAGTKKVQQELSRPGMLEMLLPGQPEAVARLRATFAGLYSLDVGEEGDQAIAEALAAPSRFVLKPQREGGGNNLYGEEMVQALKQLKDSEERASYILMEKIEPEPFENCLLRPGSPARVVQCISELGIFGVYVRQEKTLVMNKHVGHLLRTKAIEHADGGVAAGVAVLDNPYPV
UniProt P56524: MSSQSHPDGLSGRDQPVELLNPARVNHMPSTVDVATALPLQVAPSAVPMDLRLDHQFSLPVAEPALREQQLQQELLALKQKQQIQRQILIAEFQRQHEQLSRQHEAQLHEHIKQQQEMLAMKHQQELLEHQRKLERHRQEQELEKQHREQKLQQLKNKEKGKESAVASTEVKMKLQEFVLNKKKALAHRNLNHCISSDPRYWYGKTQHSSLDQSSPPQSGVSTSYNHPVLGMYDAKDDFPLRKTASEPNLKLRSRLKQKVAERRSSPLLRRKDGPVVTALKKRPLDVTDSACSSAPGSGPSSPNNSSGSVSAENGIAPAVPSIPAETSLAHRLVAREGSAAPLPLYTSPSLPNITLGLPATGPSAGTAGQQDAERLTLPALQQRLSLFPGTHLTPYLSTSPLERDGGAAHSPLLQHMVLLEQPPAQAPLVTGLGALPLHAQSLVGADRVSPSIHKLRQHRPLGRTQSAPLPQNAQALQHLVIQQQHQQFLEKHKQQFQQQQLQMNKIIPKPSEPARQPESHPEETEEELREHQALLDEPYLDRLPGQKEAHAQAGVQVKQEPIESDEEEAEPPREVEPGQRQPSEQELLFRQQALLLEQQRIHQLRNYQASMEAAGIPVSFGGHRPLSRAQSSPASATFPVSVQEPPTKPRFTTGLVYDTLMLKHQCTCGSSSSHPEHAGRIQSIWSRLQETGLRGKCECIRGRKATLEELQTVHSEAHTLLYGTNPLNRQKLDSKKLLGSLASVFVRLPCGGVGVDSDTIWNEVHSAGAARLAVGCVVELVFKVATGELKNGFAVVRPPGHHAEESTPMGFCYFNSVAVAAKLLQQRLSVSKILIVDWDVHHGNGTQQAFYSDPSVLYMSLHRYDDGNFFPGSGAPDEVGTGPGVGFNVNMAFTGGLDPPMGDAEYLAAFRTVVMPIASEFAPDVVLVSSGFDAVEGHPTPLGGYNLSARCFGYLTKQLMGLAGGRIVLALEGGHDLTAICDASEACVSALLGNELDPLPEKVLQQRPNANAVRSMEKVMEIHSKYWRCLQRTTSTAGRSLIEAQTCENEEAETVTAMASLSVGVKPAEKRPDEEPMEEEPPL
UniProt Q92769, whole entry, looked up: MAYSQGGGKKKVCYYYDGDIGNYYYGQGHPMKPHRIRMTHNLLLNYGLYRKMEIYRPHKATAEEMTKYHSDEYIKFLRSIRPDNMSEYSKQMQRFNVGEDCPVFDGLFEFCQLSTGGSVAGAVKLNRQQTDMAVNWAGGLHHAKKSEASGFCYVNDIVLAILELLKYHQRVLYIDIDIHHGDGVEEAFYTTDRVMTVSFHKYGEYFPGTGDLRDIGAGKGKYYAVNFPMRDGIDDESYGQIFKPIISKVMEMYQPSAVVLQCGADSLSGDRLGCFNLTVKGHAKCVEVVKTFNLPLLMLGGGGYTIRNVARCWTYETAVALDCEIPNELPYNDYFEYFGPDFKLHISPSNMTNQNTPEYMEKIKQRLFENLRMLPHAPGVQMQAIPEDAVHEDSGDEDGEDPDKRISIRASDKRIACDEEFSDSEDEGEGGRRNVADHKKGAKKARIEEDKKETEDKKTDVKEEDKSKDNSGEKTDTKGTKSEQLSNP
UniProt P40939: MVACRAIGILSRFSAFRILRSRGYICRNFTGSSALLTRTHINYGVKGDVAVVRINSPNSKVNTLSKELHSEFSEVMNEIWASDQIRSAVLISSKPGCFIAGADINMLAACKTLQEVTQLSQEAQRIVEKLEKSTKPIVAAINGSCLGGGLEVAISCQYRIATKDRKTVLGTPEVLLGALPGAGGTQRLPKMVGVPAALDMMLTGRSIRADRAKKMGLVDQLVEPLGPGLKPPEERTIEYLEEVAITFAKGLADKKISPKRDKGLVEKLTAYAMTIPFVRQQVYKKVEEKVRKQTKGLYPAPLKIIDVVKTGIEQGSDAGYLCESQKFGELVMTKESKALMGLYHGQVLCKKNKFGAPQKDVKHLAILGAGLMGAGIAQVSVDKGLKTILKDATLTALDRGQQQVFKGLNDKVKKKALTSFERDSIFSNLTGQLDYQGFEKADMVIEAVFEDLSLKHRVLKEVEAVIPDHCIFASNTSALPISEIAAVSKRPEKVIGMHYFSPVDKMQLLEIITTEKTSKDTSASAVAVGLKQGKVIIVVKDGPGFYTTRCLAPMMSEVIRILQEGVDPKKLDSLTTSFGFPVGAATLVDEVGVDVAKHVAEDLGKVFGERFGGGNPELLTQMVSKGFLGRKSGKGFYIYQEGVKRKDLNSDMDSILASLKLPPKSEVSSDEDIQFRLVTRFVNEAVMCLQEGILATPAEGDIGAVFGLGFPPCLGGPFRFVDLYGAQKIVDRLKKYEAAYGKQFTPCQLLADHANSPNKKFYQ
UniProt P32780: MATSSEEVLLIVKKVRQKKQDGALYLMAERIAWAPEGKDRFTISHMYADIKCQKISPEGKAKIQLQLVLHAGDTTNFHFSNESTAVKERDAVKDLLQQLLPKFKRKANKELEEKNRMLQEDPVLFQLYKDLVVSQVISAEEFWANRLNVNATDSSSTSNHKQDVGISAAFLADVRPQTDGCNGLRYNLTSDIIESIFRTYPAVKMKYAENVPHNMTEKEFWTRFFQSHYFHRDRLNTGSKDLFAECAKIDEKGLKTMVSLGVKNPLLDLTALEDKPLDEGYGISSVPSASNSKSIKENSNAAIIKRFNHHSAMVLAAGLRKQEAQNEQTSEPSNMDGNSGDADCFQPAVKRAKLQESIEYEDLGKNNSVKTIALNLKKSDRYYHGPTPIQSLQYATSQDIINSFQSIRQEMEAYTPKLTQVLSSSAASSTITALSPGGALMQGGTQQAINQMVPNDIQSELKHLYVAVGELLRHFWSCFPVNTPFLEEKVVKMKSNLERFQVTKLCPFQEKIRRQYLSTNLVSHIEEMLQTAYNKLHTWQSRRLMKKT

The targets below were run with C#Cc1cccc(Nc2ncnc3cc(OCCOC)c(OCCOC)cc23)c1 [erlotinib] (assay: log2 fold change, soluble protein after heating vs DMSO (PISA); higher = thermal stabilisation; K562 lysate, 10 uM; active = over 0.2 and 3.5 SD of the protein, either way, in both replicates (recomputed)).
Procedure, shortened: (§1)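 Values give the log-two fold change in thermal stability against solvent controls, from duplicates. Crude K562 extract at 1 mg/mL protein, made by dounce homogenisation in PBS pH 7.4 with 1 mM MgCl2, was treated with 10 μM compound for 30 min. After 3 min heating across 48°C-58°C, aliquots were pooled, adjusted to 0.5% NP-40 at 4°C and centrifuged at 21,000xg for 90 min. The supernatant was measured by TMTpro 16plex LC-MS/MS with channel sums equalised.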

log2 fold change, inactive:
GYPA (UniProt P02724) -0.109
GTPBP2 (UniProt Q9BX10) -0.008
HDAC7 isoform 5 (UniProt Q8WUI4) -0.002
H1-2 (UniProt P16403) -0.013
GRB10 (UniProt Q13322) 0.027
GSTM4 (UniProt Q03013) 0.006
HDHD5 (UniProt Q9BXW7) -0.015
GYG2 (UniProt O15488) 0.014
HAUS7 isoform 2 (UniProt Q99871) 0.104
HDGFL2 isoform 2 (UniProt Q7Z4V5) -0.008
GSTM2 (UniProt P28161) -0.083
GTSF1 (UniProt Q8WW33) -0.01
H1FX (UniProt Q92522) -0.018
GUF1 (UniProt Q8N442) 0.147
GTF3C6 (UniProt Q969F1) 0.017
GTF3C3 (UniProt Q9Y5Q9) 0.016
GSTM3 (UniProt P21266) 0.035
HAT1 (UniProt O14929) 0.016
GRSF1 (UniProt Q12849) -0.02
GSS (UniProt P48637) -0.016
HBD (UniProt P02042) 0.046
HDAC4 (UniProt P56524) -0.019
GTF3A (UniProt Q92664) -0.027
GTPBP4 (UniProt Q9BZE4) 0.024
GRHPR (UniProt Q9UBQ7) 0.021
HDAC2 (UniProt Q92769) -0.02
GSTZ1 (UniProt G3V4T6) 0.018
GTF2F1 (UniProt P35269) -0.003
HBE1 (UniProt P02100) 0.013
HADHA (UniProt P40939) -0.08
GTPBP1 (UniProt O00178) 0.011
GTF2H1 (UniProt P32780) 0.044

What follows are targets tested with C/C(=N\NC(=O)C1=CC(=CC=C1)S(=O)(=O)N2CCOCC2)/C3=C(C=CC(=C3)Cl)O in the same assay as above.
Procedure, shortened: as §1

log2 fold change, inactive:
GYPA (UniProt P02724) -0.107
GTPBP2 (UniProt Q9BX10) -0.051
HDAC7 isoform 5 (UniProt Q8WUI4) 0.053
H1-2 (UniProt P16403) -0.03
GRB10 (UniProt Q13322) -0.004
GSTM4 (UniProt Q03013) -0.044
HDHD5 (UniProt Q9BXW7) -0.038
GYG2 (UniProt O15488) -0.052
HAUS7 isoform 2 (UniProt Q99871) 0.106
HDGFL2 isoform 2 (UniProt Q7Z4V5) -0.028
GSTM2 (UniProt P28161) 0.041
GTSF1 (UniProt Q8WW33) -0.018
H1FX (UniProt Q92522) 0.007
GUF1 (UniProt Q8N442) -0.148
GTF3C6 (UniProt Q969F1) 0.014
GTF3C3 (UniProt Q9Y5Q9) 0.013
GSTM3 (UniProt P21266) 0.008
HAT1 (UniProt O14929) 0.001
GRSF1 (UniProt Q12849) -0.03
GSS (UniProt P48637) 0.002
HBD (UniProt P02042) 0.007
HDAC4 (UniProt P56524) -0.002
GTF3A (UniProt Q92664) -0.039
GTPBP4 (UniProt Q9BZE4) 0.022
GRHPR (UniProt Q9UBQ7) -0.002
HDAC2 (UniProt Q92769) 0.021
GSTZ1 (UniProt G3V4T6) -0.034
GTF2F1 (UniProt P35269) -0.015
HBE1 (UniProt P02100) -0.071
HADHA (UniProt P40939) 0.042
GTPBP1 (UniProt O00178) -0.048
GTF2H1 (UniProt P32780) 0.008

The targets below were run with C1=CC(=CC=C1C2=NC3=C(N2)C=C(C=C3)C(=O)N)OC4=CC=C(C=C4)Cl in the same assay as above.
Procedure, shortened: as §1

log2 fold change, inactive:
GYPA (UniProt P02724) 0.13
GTPBP2 (UniProt Q9BX10) -0.05
HDAC7 isoform 5 (UniProt Q8WUI4) 0.04
H1-2 (UniProt P16403) 0.015
GRB10 (UniProt Q13322) -0.06
GSTM4 (UniProt Q03013) -0.073
HDHD5 (UniProt Q9BXW7) 0.012
GYG2 (UniProt O15488) 0.025
HAUS7 isoform 2 (UniProt Q99871) 0.028
HDGFL2 isoform 2 (UniProt Q7Z4V5) 0.032
GSTM2 (UniProt P28161) -0.038
GTSF1 (UniProt Q8WW33) 0.042
H1FX (UniProt Q92522) -0.033
GUF1 (UniProt Q8N442) -0.095
GTF3C6 (UniProt Q969F1) 0.064
GTF3C3 (UniProt Q9Y5Q9) -0.013
GSTM3 (UniProt P21266) 0.004
HAT1 (UniProt O14929) 0.031
GRSF1 (UniProt Q12849) 0.016
GSS (UniProt P48637) 0.036
HBD (UniProt P02042) 0.003
HDAC4 (UniProt P56524) 0.093
GTF3A (UniProt Q92664) 0.108
GTPBP4 (UniProt Q9BZE4) -0.047
GRHPR (UniProt Q9UBQ7) 0.044
HDAC2 (UniProt Q92769) -0.001
GSTZ1 (UniProt G3V4T6) 0.032
GTF2F1 (UniProt P35269) 0.014
HBE1 (UniProt P02100) -0.028
GTPBP1 (UniProt O00178) 0.024
GTF2H1 (UniProt P32780) 0.012

log2 fold change, active:
HADHA (UniProt P40939) 0.387
